Test results published in the supplement of paper PMC7666118.
The other results are listed elsewhere or left out.

Sequences of proteins named here, by UniProt entry; tags and fusion partners are left off. A change or cut given only in a name is not applied to a line headed by its entry.
UniProt Q15022: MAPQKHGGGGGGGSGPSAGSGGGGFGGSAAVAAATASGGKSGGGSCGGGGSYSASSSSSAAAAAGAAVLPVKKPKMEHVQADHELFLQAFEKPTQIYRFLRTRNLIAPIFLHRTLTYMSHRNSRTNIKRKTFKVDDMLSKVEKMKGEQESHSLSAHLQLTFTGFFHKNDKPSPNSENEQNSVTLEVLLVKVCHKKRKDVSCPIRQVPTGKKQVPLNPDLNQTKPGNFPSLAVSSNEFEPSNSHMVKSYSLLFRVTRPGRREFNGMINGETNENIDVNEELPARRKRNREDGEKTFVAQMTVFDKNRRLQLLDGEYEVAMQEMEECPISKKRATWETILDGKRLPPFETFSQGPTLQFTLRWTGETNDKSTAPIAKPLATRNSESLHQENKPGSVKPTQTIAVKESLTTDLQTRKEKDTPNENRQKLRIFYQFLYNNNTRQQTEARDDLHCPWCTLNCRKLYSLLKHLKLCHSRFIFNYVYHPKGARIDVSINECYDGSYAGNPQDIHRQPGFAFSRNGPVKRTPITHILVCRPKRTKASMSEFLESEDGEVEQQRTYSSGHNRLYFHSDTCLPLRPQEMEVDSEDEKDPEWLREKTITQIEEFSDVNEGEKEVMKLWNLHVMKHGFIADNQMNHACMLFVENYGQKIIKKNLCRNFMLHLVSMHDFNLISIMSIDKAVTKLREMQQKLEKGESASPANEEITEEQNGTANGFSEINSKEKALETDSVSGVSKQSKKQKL
UniProt P78362, whole entry, looked up: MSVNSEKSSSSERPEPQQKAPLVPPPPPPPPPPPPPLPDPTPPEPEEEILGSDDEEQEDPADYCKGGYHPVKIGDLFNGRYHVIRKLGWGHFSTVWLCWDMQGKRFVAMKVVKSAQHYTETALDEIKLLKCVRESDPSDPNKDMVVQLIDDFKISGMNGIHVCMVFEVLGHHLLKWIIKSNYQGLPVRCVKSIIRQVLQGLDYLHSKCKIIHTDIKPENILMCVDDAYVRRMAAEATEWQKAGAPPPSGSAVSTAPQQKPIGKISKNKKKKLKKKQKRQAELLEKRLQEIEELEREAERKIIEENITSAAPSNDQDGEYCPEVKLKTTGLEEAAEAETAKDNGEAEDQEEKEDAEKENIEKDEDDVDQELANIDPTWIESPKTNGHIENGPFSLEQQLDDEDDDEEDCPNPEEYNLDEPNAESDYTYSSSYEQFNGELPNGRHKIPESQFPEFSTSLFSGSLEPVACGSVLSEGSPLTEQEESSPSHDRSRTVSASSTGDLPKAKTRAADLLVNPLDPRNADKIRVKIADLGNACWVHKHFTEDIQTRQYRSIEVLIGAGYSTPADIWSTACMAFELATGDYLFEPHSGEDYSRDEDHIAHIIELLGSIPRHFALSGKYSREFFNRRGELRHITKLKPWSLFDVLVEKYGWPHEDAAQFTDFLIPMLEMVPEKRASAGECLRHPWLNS
UniProt O95772: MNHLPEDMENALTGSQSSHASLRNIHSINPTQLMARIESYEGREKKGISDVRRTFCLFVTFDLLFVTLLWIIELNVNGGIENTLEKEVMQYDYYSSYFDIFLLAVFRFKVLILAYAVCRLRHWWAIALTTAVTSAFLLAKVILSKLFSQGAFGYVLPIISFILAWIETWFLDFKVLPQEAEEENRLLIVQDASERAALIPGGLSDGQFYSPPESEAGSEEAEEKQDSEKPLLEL
UniProt Q9H8P0: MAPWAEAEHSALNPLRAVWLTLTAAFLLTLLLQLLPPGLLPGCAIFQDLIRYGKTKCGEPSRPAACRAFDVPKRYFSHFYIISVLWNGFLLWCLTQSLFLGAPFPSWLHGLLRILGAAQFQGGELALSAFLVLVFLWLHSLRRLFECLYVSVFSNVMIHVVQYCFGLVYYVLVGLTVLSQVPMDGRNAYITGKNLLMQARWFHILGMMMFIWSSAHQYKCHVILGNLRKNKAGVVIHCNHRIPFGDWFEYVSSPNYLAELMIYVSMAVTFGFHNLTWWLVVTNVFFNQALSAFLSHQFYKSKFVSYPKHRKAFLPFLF
UniProt Q96BZ9: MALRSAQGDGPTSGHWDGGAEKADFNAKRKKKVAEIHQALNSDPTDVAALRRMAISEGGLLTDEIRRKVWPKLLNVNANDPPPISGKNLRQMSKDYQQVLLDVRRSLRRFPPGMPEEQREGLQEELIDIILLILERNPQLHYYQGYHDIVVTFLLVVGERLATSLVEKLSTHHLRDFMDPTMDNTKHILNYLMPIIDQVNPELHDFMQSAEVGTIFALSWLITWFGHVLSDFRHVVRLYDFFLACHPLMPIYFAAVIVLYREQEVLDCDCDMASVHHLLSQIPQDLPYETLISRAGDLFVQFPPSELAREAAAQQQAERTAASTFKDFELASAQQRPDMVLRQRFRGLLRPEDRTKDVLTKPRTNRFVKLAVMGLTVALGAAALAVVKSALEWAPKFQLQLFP
UniProt Q12962, whole entry: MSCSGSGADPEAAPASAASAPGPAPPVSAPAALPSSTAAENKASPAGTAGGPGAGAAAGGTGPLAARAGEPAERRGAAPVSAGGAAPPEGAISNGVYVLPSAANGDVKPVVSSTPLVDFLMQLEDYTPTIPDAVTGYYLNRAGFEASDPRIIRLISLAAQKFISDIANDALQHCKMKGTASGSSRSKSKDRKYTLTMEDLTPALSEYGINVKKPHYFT
UniProt Q9UNE7: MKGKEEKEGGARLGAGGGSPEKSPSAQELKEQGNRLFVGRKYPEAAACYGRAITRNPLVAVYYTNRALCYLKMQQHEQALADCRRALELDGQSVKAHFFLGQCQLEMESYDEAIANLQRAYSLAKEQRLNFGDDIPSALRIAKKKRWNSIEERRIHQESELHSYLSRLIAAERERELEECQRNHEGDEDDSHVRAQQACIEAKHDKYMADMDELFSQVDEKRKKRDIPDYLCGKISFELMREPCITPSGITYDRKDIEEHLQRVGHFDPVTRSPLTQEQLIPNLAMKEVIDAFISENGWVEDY
UniProt Q96T58, whole entry: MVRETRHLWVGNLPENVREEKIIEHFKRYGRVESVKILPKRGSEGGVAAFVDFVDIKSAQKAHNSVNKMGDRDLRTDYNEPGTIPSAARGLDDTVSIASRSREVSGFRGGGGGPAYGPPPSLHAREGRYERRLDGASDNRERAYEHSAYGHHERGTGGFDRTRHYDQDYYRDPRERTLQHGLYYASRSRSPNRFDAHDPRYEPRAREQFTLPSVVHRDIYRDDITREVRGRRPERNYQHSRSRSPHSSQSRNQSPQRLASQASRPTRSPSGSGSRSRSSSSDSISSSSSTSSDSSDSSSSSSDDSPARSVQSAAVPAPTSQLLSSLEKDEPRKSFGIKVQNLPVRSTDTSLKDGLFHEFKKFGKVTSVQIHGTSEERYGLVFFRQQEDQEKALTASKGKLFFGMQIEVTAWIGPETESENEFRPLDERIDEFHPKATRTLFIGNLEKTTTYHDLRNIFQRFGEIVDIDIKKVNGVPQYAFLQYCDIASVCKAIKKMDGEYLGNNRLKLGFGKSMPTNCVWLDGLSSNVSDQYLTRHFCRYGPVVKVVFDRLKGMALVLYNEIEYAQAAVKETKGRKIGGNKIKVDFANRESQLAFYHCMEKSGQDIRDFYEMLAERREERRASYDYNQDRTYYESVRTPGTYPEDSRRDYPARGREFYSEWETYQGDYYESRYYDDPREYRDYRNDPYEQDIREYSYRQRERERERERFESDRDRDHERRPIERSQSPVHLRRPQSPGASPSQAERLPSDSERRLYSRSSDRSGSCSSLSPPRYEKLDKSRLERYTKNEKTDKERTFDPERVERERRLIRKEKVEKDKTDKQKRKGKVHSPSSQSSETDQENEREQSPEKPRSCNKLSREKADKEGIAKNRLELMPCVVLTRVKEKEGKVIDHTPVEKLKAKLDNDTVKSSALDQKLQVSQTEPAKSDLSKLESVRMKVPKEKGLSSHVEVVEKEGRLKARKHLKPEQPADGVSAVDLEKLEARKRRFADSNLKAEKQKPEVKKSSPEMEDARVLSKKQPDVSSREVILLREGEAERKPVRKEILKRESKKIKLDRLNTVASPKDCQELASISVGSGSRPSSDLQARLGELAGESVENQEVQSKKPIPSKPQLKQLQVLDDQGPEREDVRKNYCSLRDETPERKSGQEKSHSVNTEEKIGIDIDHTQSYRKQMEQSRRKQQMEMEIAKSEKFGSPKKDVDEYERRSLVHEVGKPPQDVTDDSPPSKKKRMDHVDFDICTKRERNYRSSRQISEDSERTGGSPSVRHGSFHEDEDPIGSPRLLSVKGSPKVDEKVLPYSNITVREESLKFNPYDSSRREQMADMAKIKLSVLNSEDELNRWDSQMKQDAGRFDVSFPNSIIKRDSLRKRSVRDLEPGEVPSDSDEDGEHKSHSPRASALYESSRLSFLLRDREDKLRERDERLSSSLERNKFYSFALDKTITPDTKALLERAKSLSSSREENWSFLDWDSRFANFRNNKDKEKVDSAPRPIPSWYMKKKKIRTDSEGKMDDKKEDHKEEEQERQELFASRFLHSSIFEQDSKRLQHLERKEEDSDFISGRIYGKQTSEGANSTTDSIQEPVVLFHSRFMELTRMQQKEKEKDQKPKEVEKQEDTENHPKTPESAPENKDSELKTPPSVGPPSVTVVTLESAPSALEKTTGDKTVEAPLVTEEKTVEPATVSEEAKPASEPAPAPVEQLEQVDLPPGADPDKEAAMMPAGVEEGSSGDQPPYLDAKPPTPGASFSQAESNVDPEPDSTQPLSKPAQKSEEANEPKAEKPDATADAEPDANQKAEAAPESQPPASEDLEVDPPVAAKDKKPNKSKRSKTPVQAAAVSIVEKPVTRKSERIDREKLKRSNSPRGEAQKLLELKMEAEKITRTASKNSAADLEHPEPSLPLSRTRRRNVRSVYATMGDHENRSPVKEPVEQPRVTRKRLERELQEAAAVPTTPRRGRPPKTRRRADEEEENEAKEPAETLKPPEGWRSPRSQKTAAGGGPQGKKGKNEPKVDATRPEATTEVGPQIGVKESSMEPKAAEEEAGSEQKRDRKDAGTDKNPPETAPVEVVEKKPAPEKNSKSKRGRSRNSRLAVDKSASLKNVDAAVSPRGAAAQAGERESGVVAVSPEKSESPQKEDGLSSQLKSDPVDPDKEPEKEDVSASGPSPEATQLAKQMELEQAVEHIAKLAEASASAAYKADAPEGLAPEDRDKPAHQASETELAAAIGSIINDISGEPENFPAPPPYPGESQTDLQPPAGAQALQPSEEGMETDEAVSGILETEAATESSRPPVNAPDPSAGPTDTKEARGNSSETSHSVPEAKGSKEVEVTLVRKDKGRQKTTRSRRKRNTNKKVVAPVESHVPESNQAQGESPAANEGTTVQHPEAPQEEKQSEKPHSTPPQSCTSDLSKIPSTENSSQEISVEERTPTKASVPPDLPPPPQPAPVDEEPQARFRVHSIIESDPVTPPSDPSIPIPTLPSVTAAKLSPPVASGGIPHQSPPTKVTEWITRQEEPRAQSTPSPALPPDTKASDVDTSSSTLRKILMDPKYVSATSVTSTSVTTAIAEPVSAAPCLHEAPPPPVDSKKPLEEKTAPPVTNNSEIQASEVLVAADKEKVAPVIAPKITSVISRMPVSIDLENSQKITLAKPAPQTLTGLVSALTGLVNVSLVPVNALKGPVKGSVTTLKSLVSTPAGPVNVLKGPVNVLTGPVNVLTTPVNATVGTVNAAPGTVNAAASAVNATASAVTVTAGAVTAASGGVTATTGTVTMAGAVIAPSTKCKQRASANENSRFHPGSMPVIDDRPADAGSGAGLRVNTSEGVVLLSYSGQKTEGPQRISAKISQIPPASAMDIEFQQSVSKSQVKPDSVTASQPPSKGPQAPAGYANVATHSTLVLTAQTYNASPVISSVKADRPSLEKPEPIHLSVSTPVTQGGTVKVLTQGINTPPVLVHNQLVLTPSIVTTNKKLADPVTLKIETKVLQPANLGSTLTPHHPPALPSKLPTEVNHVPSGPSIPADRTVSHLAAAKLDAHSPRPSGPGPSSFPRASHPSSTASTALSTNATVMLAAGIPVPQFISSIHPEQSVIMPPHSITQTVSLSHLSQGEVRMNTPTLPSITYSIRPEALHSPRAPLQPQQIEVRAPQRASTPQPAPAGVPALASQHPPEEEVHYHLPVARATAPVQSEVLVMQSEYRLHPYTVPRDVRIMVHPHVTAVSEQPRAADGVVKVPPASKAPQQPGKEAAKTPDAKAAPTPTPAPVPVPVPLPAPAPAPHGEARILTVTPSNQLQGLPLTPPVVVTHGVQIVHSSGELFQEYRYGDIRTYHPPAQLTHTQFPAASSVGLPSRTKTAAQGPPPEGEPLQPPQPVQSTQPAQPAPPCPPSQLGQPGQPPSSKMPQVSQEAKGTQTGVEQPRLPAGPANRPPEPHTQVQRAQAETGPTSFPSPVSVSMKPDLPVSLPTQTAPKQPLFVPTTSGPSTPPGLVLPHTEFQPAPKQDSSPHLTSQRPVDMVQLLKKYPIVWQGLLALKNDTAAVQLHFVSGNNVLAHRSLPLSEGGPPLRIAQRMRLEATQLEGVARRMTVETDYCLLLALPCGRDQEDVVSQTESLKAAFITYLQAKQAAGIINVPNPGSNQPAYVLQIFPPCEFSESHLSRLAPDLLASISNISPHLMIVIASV

Each target was assayed with COc1ccc(Cn2ccc3cc(C)c(C(=O)NO)cc32)cc1 (assay: dose-dependent thermal stabilisation call (2D-TPP, DLPTP, 10% FDR) (binary (1 = stabilised)); higher = stabilised by the compound). Conditions: system: HL-60 intact cells; concentration range 0.04-10 µM.
Procedure: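 2D thermal proteome profiling in intact HL-60 cells treated with BRD-3811 (0, 0.04, 0.29, 2, 10 uM) for 90 min at 37 C, then heated 3 min at one of 12 temperatures (42-63.9 C). Soluble protein was quantified by TMT10 MS. The value is the DLPTP call of the paper: dose-dependent thermal stabilisation over all temperatures at 10% FDR (F-test of a dose-response against a flat model); one experiment, one call per tested protein.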

| Target | dose-dependent thermal stabilisation call |
| --- | --- |
| SUZ12 (UniProt Q15022) | inactive: 0 |
| SRPK2 (UniProt P78362) | inactive: 0 |
| STAT1 (UniProt P42224) | inactive: 0 |
| TARBP2 (UniProt Q15633) | inactive: 0 |
| SPR (UniProt P35270) | inactive: 0 |
| SRRM2 (UniProt Q9UQ35) | inactive: 0 |
| SPNS3 (UniProt Q6ZMD2) | inactive: 0 |
| STARD3NL (UniProt O95772) | inactive: 0 |
| STT3B (UniProt Q8TCJ2) | inactive: 0 |
| SPPL2A (UniProt Q8TCT8) | inactive: 0 |
| STRN3 (UniProt Q13033) | inactive: 0 |
| SYNE1 (UniProt Q8NF91) | inactive: 0 |
| SRPK1 (UniProt Q96SB4) | inactive: 0 |
| SRD5A3 (UniProt Q9H8P0) | inactive: 0 |
| TFCP2 (UniProt Q12800) | inactive: 0 |
| TAOK2 (UniProt Q9UL54) | inactive: 0 |
| SYNJ2 (UniProt O15056) | inactive: 0 |
| ST8SIA4 (UniProt Q92187) | inactive: 0 |
| SQRDL (UniProt Q9Y6N5) | inactive: 0 |
| TBC1D20 (UniProt Q96BZ9) | inactive: 0 |

| Target | dose-dependent thermal stabilisation call |
| --- | --- |
| TAF10 (UniProt Q12962) | inactive: 0 |
| SRP72 (UniProt O76094) | inactive: 0 |
| TAF7 (UniProt Q15545) | inactive: 0 |
| TAOK3 (UniProt Q9H2K8) | inactive: 0 |
| SYNCRIP (UniProt O60506) | inactive: 0 |
| STUB1 (UniProt Q9UNE7) | inactive: 0 |
| SSB (UniProt P05455) | inactive: 0 |
| SPTLC1 (UniProt O15269) | inactive: 0 |
| SUGT1 (UniProt Q9Y2Z0) | inactive: 0 |
| SUMF2 (UniProt Q8NBJ7) | inactive: 0 |
| SPTLC2 (UniProt O15270) | inactive: 0 |
| SPAG9 (UniProt O60271) | inactive: 0 |
| TBC1D5 (UniProt Q92609) | inactive: 0 |
| TCEA1 (UniProt P23193) | inactive: 0 |
| TBL1XR1 (UniProt Q9BZK7) | inactive: 0 |
| TCEA2 (UniProt Q15560) | inactive: 0 |
| ST3GAL4 (UniProt Q11206) | inactive: 0 |
| SP100 (UniProt P23497) | inactive: 0 |
| SPEN (UniProt Q96T58) | inactive: 0 |
| SSBP3 (UniProt Q9BWW4) | inactive: 0 |

Copied from the list.
TAF7 (UniProt Q15545) – dose-dependent thermal stabilisation call: inactive: 0
SPTLC2 (UniProt O15270) – dose-dependent thermal stabilisation call: inactive: 0
